Results: PubChem BioAssay AID1439 (NMMLSC, 2008)
About 770 (0.35%) of roughly 220,000 compounds were called active. The shares of active, inactive and inconclusive entries below differ from those in the screen. Cut-off read from the data, not from the text of the source: active = binding response below about 49% or above about 150%; inconclusive = no clear call, values can overlap the other calls; inactive = in between.

By UniProt entry, the sequences of proteins in these tests, tags left out.
UniProt P09471, whole entry, looked up: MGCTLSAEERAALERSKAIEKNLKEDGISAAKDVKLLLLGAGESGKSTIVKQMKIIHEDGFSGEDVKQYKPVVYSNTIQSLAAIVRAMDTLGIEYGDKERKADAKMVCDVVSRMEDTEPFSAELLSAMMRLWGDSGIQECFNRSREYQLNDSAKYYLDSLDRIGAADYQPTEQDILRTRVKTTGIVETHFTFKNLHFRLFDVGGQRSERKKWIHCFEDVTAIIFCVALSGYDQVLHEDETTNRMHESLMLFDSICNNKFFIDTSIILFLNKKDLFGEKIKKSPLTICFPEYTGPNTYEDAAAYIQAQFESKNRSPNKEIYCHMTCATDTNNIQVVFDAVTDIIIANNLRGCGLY

Target: Guanine nucleotide-binding protein G(o) subunit alpha (Homo sapiens) (UniProt P09471)
Test: RGS7-Galphao binding modulators, primary screen, biochemical, multiplexed bead flow cytometry (AID 1439);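 note: fluorescent Galphao held in activated GDP-AlF4 state binding bead-coupled RGS7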
Details: at 10 µM, actives lie on both sides

Row | Compound | binding response (% of control)
1 | COc1cnc(-c2ccccn2)nc1Oc1ccc(F)cc1F | inconclusive: 103%
2 | CC(=O)c1cn(C)c(=O)c2ccccc12 | inconclusive: 386%
3 | O=C(Nc1ccc(S(=O)(=O)Nc2ncccn2)cc1)c1ccc(Br)o1 | inconclusive: 101%
4 | Cc1cc(C)n(-c2ccc(C(=O)N3CC(C)OC(C)C3)cc2)n1 (stereo unspecified) | inactive: 98.8%
5 | COc1ccc(N2C(=O)[C@@H]3[C@H](C2=O)[C@H](C(C)=O)N2c4ccccc4C=C[C@@H]32)cc1 | inconclusive: 74%
6 | Cc1ccc(NC(=O)C2CC(=O)n3c(nc4ccccc43)N2)cc1C (stereo unspecified) | inconclusive: 83.8%
7 | COc1ccccc1NC(=O)c1ccc(NC(=O)CN(C)Cc2ccccc2F)cc1 | inconclusive: 101%
8 | COc1ccc(CCNC(=O)COc2nncc3ccccc23)cc1 | inconclusive: 107%
9 | O=C(OCc1ccccn1)c1ccc(COc2ccc3ccccc3c2)o1 | inconclusive: 87.5%
10 | O=C(COc1ccccc1[N+](=O)[O-])NC1CC1 | inconclusive: 105%
11 | Nc1c(C(=O)O)sc2nc3c(cc12)CCCC3 | inconclusive: 98.2%
12 | Cc1nc(C)c(-c2nnc(-c3ccc(C(C)(C)C)cc3)o2)cc1C(=O)NN | inactive: 94.8%
13 | CCOC(=O)c1c(NC(=S)N2CCN(C)CC2)sc2c1CCN(C(=O)OCC)C2 | inconclusive: 162%
14 | C[C@H](NC(=O)c1nc[nH]c1C(=O)N[C@@H](CCCCNC(=O)OC(C)(C)C)C(=O)OC(C)(C)C)c1ccccc1 | inconclusive: 102%
15 | CC(C)(C)C(=O)Nc1nc(C2CCCN2S(=O)(=O)c2ccc(Cl)cc2)cs1 (stereo unspecified) | inactive: 103%
16 | Cc1ccc(Nc2nc(N)nc(CN3CCN(Cc4ccc5c(c4)OCO5)CC3)n2)cc1C | inactive: 97%
17 | CC1CCCN(C(=O)COc2ccc(-c3ccccc3)cc2)C1 (stereo unspecified) | inconclusive: 86.8%
18 | O=c1c(-c2cccc([N+](=O)[O-])c2)[n+]([O-])c2ccccc2n1O | inconclusive: 87.1%
19 | COc1ccc(CNCC(O)COc2ccc(C)cc2[N+](=O)[O-])cc1 (stereo unspecified) | inconclusive: 85.5%
20 | NC(=O)[C@@H]1CC2(CC(c3cccc(NC(=O)COc4ccc(Cl)cc4)c3)=NO2)CN1C(=O)COc1ccc(Cl)cc1 (stereo partly specified) | inconclusive: 112%
21 | Cc1c(C(=O)NCCSCc2c(F)cccc2Cl)cnn1-c1ccc(F)cc1 | inconclusive: 127%
22 | CCOP(=O)(OCC)C(Nc1ccc(C(=O)O)cc1)c1ccccc1 (stereo unspecified) | inconclusive: 88.2%
23 | O=C1N(CN2CCN(Cc3ccccc3)CC2)c2ccccc2C12OCCCO2 | inactive: 100%

Row | Compound | binding response (% of control)
24 | O=C1CCC(=O)N1CCSC(=S)N1CCOCC1 | inconclusive: 119%
25 | CSc1ncc(-c2ccc(Cl)cc2)[nH]1 | inconclusive: 83.1%
26 | Cc1cc(C(=O)NNC(=O)c2cccc(Cl)c2)no1 | inconclusive: 78.7%
27 | CCOC(=O)c1ccc(NC(=O)c2nc[nH]c2C(=O)NC2CCN(C(=O)OC(C)(C)C)CC2)cc1 | inconclusive: 115%
28 | Fc1ccc(-n2c(-c3ccc4ccccc4n3)n[nH]c2=S)cc1Cl | inconclusive: 88.1%
29 | CC1CN(c2nc3ccccn3c(=O)c2/C=C(\C#N)C(N)=O)CC(C)O1 (stereo unspecified) | inconclusive: 98%
30 | O=C(NCc1ccco1)c1ccccc1-c1nc(-c2ccc(F)cc2)no1 | inconclusive: 85.6%
31 | O=C1C(=O)c2ccccc2C(O)=C1c1ccccc1F | inconclusive: 93.5%
32 | COC(=O)c1cc(=O)c2cccc(OC)c2[nH]1 | inconclusive: 108%
33 | O=S(=O)(Nc1ncnc2sc3c(c12)CCC3)c1cc(F)ccc1F | inconclusive: 92.2%
34 | N/C(=N\OC(=O)CSc1ccccc1)c1ccc([N+](=O)[O-])cc1 | inactive: 128%
35 | COC(=O)c1ccc(CSc2cc(C)c3cc(C)cc(C)c3n2)o1 | inconclusive: 99.7%
36 | C/C(=N\NC(N)=S)c1ccccc1 | inconclusive: 93.6%
37 | COc1ccc(CN(Cc2ccc(OC)cc2)C(=O)c2cccs2)cc1 | inconclusive: 56.9%
38 | Cc1nn(CC(=O)N2CCc3ccccc3C2)c(C)c1[N+](=O)[O-] | inactive: 97.5%
39 | Cc1cc(=O)oc2c(C(=O)c3ccccc3)c(OCC(N)=O)ccc12 | inconclusive: 92.6%
40 | COC(=O)c1ccc(C23CC4(C2)[C@H](CN(CC2CCCCC2)[C@@H]4c2ccccc2)C3c2ccc(C(F)(F)F)cc2)cc1 (stereo partly specified) | inconclusive: 82.9%
41 | COc1ccc2c(c1)C=C(C(=O)OCc1cccnc1)CO2 | inconclusive: 112%
42 | Cc1ccc(S(=O)(=O)Nc2ccc3c(c2)nc(C)n3C)cc1 | inconclusive: 80.4%
43 | CCn1ncc(Br)c1C(=O)Nc1ccc2c(c1)OCCO2 | inconclusive: 93.7%
44 | O=C(Cc1ccc(Cl)cc1)NNC(=S)NC(=O)c1cccs1 | inconclusive: 115%
45 | CC(=O)N(c1cccc(C)c1)S(=O)(=O)c1ccc(Cl)cc1 | inconclusive: 97.4%
46 | Cc1ccc(S(=O)(=O)NNC(=O)c2cc(C)cs2)cc1 | inconclusive: 57.9%

Row | Compound | binding response (% of control)
47 | Fc1ccc(C2=Nn3c(nnc3-c3ccco3)SC2)cc1 | inconclusive: 81.1%
48 | Fc1ccc(NC(=S)N/N=C/c2ccc(F)c(F)c2)cc1 | inactive: 130%
49 | CCn1c(NC(=O)C(C)C)c(-c2cccs2)c(=O)c2ccccc21 | inconclusive: 88%
50 | CN(C)c1ccc(C(=O)N2CCCC2)cc1 | inconclusive: 101%
51 | Cc1nn(CCS(=O)(=O)c2ccc(Cl)cc2)c(C)c1Br | inconclusive: 99.2%
52 | Cc1cc2nc(-c3ccccc3)cc(=O)n2[nH]1 | inconclusive: 163%
53 | CC1(C)Nc2ccccc2N(Cc2ccc([N+](=O)[O-])cc2)C1=O | inconclusive: 114%
54 | CCN(CC)S(=O)(=O)c1cc(C(=O)O)ccc1OC | inconclusive: 113%
55 | COc1ccc(CCNC(=O)Cc2ccc([N+](=O)[O-])cc2)cc1OC | inconclusive: 98%
56 | COc1ccc(CCNc2ncnc3c2[nH]c2cc(OC)c(OC)cc23)cc1OC | inconclusive: 83.1%
57 | CCn1c([N+](=O)[O-])nc2c1c(=O)[nH]c(=O)n2C | inconclusive: 112%
58 | O=C(Cn1cccc1)Nc1ccc(F)cc1F | inactive: 99.8%
59 | CN(/N=C/c1ccc(Cl)cc1)c1ncc(Cl)cc1C(F)(F)F | inconclusive: 89.3%
60 | Cn1c(Cn2c(=O)sc3ccccc32)nnc1SCC(=O)NCc1ccco1 | inactive: 96.8%
61 | COc1ccccc1NC(=O)c1ccc(NC(=O)CN2C(=O)CN(C)C2=O)cc1 | inconclusive: 101%
62 | COc1cc(/C=N/NC(=S)NCC2CCCO2)cc(OC)c1OC (stereo unspecified) | inconclusive: 97.9%
63 | COC(C/C=C/[C@H](O)COCc1ccccc1)OC | inconclusive: 103%
64 | COCCNC(=O)/C(C#N)=c1\s/c(=C\c2ccccc2OC(F)F)c(=O)n1Cc1ccccc1 | inactive: 104%
65 | CS(=O)(=O)N1CCN(c2cnn(-c3ccccc3)c(=O)c2Cl)CC1 | inactive: 142%
66 | COCCN1C(=S)NC(c2cccc(C(F)(F)F)c2)C(C(=O)N2CCOCC2)=C1C (stereo unspecified) | inconclusive: 90.5%
67 | CC1=CC(=O)C=C(C)C1=NOc1ccccc1[N+](=O)[O-] | inactive: 101%
68 | Cn1c(CCCCCN)nc2ccccc21 | inactive: 100%
69 | CNC(=O)c1[nH]cnc1C(=O)Nc1ccc(Cl)cc1 | inconclusive: 78.6%

Compounds 33 through 37, quoted:
Row | Compound | binding response (% of control)
33 | O=S(=O)(Nc1ncnc2sc3c(c12)CCC3)c1cc(F)ccc1F | inconclusive: 92.2%
34 | N/C(=N\OC(=O)CSc1ccccc1)c1ccc([N+](=O)[O-])cc1 | inactive: 128%
35 | COC(=O)c1ccc(CSc2cc(C)c3cc(C)cc(C)c3n2)o1 | inconclusive: 99.7%
36 | C/C(=N\NC(N)=S)c1ccccc1 | inconclusive: 93.6%
37 | COc1ccc(CN(Cc2ccc(OC)cc2)C(=O)c2cccs2)cc1 | inconclusive: 56.9%

Going on with the list.

Row | Compound | binding response (% of control)
70 | CCOc1ccc(/C=N/NC(=O)Cn2ccnc2C)cc1 | inconclusive: 113%
71 | CCCNC(=O)NC(=O)COC(=O)CNS(=O)(=O)/C=C/c1ccccc1 | inactive: 107%
72 | COc1ccc2c(c1)c(/C=N/Nc1nc3ccccc3[nH]1)c(C)n2C | inconclusive: 182%
73 | O=C(C/C=N\OCc1ccc(Cl)cc1Cl)Nc1ccccc1 | inconclusive: 102%
74 | C#CCOC(=O)c1ccc(-n2cncn2)nc1 | inactive: 98.5%
75 | COCCCN1C(=O)C(=O)/C(=C(/O)c2ccc(OC)cc2)C12C(=O)N(C)c1ccccc12 (stereo unspecified) | inconclusive: 103%
76 | O=C(COC(=O)c1cccnc1Cl)Nc1cc(S(=O)(=O)N2CCCCC2)ccc1Cl | inconclusive: 115%
77 | O=C1COc2ccc(C(=O)C[n+]3cccc(O)c3)cc2N1 | inconclusive: 121%
78 | CC(=O)COc1ccc(-c2csnn2)cc1 | inconclusive: 136%
79 | O=C(NCCCN1CCCC1=O)c1cccc(Oc2ccccc2)c1 | inconclusive: 123%
80 | CCc1nc2sc3ccccc3c(=O)c2c(=O)n1Cc1ccc(OC)cc1 | inconclusive: 116%
81 | COc1ccc(Cl)cc1NC(=O)CN(C)CC(=O)NC(C)c1ccccc1 (stereo unspecified) | inconclusive: 83%
82 | CCc1cccc(CC)c1NC(=O)CN1C2CCCC1CC(NC(=O)Nc1cccc(OC)c1)C2 (stereo unspecified) | inactive: 105%
83 | O=C(COc1ccc(Br)cc1)N1CCN(c2ccc([N+](=O)[O-])c(N3CCCCC3)c2)CC1 | inactive: 100%
84 | CCOC(=O)c1[nH]ncc1CN1CCC(Cc2cccc(OC)c2)(C(=O)OCC)CC1 | inconclusive: 126%
85 | CCCOC(=O)c1ccc(NC(=O)C2C3C=CC(O3)C2C(=O)O)cc1 (stereo unspecified) | inactive: 110%
86 | CCCCn1ccnc1C | inconclusive: 149%
87 | CN(C)c1ccc(C2/C(=C(/O)c3ccccc3)C(=O)C(=O)N2CCCC(=O)O)cc1 (stereo unspecified) | inconclusive: 99.4%
88 | Cc1ccc(C2CC(c3cccs3)=NN2C(=O)CSc2nc3ccccc3o2)cc1 (stereo unspecified) | inactive: 101%
89 | CC(=O)n1cc(Nc2ccc([N+](=O)[O-])cc2)c2ccccc21 | inconclusive: 111%
90 | CCOC(=O)c1cnn(-c2ccccc2)c1NC(=O)CN1CCOCC1 | inconclusive: 102%
91 | CC(C)CN(C(=O)COC(=O)c1c(Cl)ccc(Cl)c1Cl)C1CCS(=O)(=O)C1 (stereo unspecified) | inactive: 92.6%
